SMILES strings stand for the structures. This is one part of the list. No stated cut-off is given here; in the data, active = 0.7 or more and inactive = the rest. Most values come without repeats; read them as rough.

The assay has as its system MiaPaCa-2 CLSA-25. Briefly: cell death relative to DMSO vehicle (fraction); higher = more cytotoxic. As to conditions: 5 µM; treatment time 48 h; medium cystine 25 µM.
For the compound `N[C@@H](CCNCc1ccc(Cl)cc1)C(=O)N1CCCCC1`, the cell death was inactive: 0.129.

With `CC(C)(Oc1ccc(Cl)cc1)C(=O)O` [Clofibric acid], the cell death is inactive: 0.375.

In the case of `O=C(O)c1cc(=O)[nH]c(=O)[nH]1` [Orotic acid], the cell death is inactive: 0.084.

For the compound `O=C(Nc1cccc(C(F)(F)F)c1)Nc1cc(S(=O)(=O)NC2CC2)ccc1-c1ccsc1`, the cell death is inactive: 0.282.

Consider `CCOc1ccc(Cc2cc([C@@H]3O[C@H](SC)[C@@H](O)[C@H](O)[C@H]3O)ccc2Cl)cc1` [Sotagliflozin], for which the cell death was inactive: 0.202.

Consider `O=C(O)CCCCC(CCSCc1ccccc1)SCc1ccccc1` (configuration not stated), for which the cell death is inactive: 0.489.

In the case of `CC(=O)OCC(=O)[C@H]1CC[C@H]2[C@@H]3CCC4=CC(=O)CC[C@]4(C)[C@H]3CC[C@]12C` [Deoxycorticosterone acetate], the cell death was inactive: 0.245.

Regarding `O=C(O)Cc1ccc(O)c(O)c1` [3,4-Dihydroxyphenylacetic acid], the cell death is inactive: 0.0383.

For the compound `O=c1oc2cc(O)ccc2s1` [Tioxolone], the cell death is inactive: 0.00101.

Regarding `O=C(O)Cc1cccc(OCCCN(Cc2cccc(C(F)(F)F)c2Cl)CC(c2ccccc2)c2ccccc2)c1`, the cell death was inactive: 0.118.

Take `COc1ccccc1OCCNCC(O)COc1cccc2[nH]c3ccccc3c12` (configuration not stated) [Carvedilol phosphate]: the cell death is inactive: 0.0276.

Consider `COC(=O)N[C@H](C(=O)N1CC2(CC2)C[C@H]1c1ncc(-c2ccc3c(c2)C(F)(F)c2cc(-c4ccc5nc([C@@H]6[C@H]7CC[C@H](C7)N6C(=O)[C@@H](NC(=O)OC)C(C)C)[nH]c5c4)ccc2-3)[nH]1)C(C)C` [Ledipasvir acetone], for which the cell death was inactive: 0.643.

For `CCC(=O)O[C@]1(C(=O)SCF)[C@H](C)C[C@H]2[C@@H]3C[C@H](F)C4=CC(=O)C=C[C@]4(C)[C@@]3(F)[C@@H](O)C[C@@]21C` [Fluticasone propionate], the cell death is active: 0.772.

Consider `CC[C@H]1OC(=O)[C@H](C)[C@@H](O[C@H]2C[C@@](C)(OC)[C@@H](O)[C@H](C)O2)[C@H](C)[C@@H](O[C@@H]2O[C@H](C)C[C@H](N(C)C)[C@H]2O)[C@](C)(OC)C[C@@H](C)C(=O)[C@H](C)[C@@H](O)[C@]1(C)O` [Clarithromycin], for which the cell death was inactive: 0.178.

Consider `CC(C)(C)[C@]1(O)CC2OC(=O)CC23C(=O)OC2OC(=O)[C@H](O)C231` (some centres not stated) [Bilobalide], for which the cell death was inactive: 0.0356.

Turning to `CN(NC(=O)CC(=O)NN(C)C(=S)c1ccccc1)C(=S)c1ccccc1` [Elesclomol], the cell death is inactive: 0.0994.

Turning to `O=c1[nH]cnc2c1ncn2[C@@H]1O[C@H](CO)[C@@H](O)[C@H]1O` [Inosine], the cell death was inactive: -0.00107.

For the compound `O=C(NCc1ccc(S(=O)(=O)c2cc(F)cc(F)c2)cc1)c1ccc2nccn2c1`, the cell death is inactive: 0.683.

As to `O=c1cc(-c2ccc(O)c(O)c2)oc2cc(O)cc(O)c12` [Luteolin], the cell death was inactive: 0.208.

`CCCC(C)NC(=O)c1ccc(Cl)c(Cl)c1` (configuration not stated): the cell death was inactive: 0.17.

In the case of `CC(C)C[C@H](NC(=O)[C@H](Cc1ccccc1)NC(=O)c1cnccn1)B(O)O` [Bortezomib], the cell death was inactive: 0.505.

Regarding `CC(S)C(=O)NCC(=O)O` (configuration not stated) [Tiopronin], the cell death is inactive: 0.182.

On to `C[N+](C)(C)CC(=O)O` [Betaine], for which the cell death was inactive: 0.21.

Turning to `C[C@]12C=CC(=O)C=C1CC[C@H]1[C@@H]3C[C@@H](O)[C@](O)(C(=O)CO)[C@@]3(C)C[C@H](O)[C@@]12F` [Triamcinolone], the cell death was inactive: 0.159.

With `CC1=C(/C=C/C(C)=C/C=C/C(C)=C/C(=O)O)C(C)(C)CCC1` [Tretinoin], the cell death was inactive: 0.499.

As to `O=C(O)c1cc(C(F)(F)F)ccc1N1CC[C@H](OCc2ccccn2)C1`, the cell death was inactive: 0.582.

As for `CCC[C@H](NC(=O)[C@@H]1[C@H]2CCC[C@H]2CN1C(=O)[C@@H](NC(=O)[C@@H](NC(=O)c1cnccn1)C1CCCCC1)C(C)(C)C)C(=O)C(=O)NC1CC1` [Telaprevir], the cell death was inactive: 0.593.
